The record followed here is patent US9134318B2, “Detection of oxidized polypeptides” (Purdue Research Foundation, priority 2009, dated 2015).

Where “and” joins values, the source holds several entries; their conditions need not be identical. Identical values can stand only once.

The first series relates to carbonylated plasma proteins. As to the kind of experiment: iTRAQ and MALDI/TOF/TOF quantitative comparison of avidin-selected carbonylated proteins, breast cancer patients vs controls (Table 8). Details: species or system Homo sapiens. The following applies: avidin-selected carbonylated protein in plasma, breast cancer patient vs matched control, iTRAQ; repeated lines of a protein = different donors; negative = lower in cancer.
In the case of Zonadhesin precursor, the “Breast cancer/control (fold change)” value was −7.8 fold change.

Regarding Spectrin alpha chain, erythrocyte, the “Breast cancer/control (fold change)” value is given as −4.1 fold change.

In the case of Myosin-5B, the “Breast cancer/control (fold change)” value is listed as −1.5 fold change.

Turning to Bulious pemphigoid antigen 1, isoforms, the “Breast cancer/control (fold change)” value was −2.5 fold change.

For Usherin precursor, the “Breast cancer/control (fold change)” value is given as −2.5 fold change.

Turning to “Ig kappa chain V-III region CLL precursor”, the “Breast cancer/control (fold change)” value is 2.0 fold change.

For Nesprin-1, the “Breast cancer/control (fold change)” value was −2.8 fold change.

As for Haptoglobin precursor, the “Breast cancer/control (fold change)” value was 2.2 fold change.

Myosin IIIA: the “Breast cancer/control (fold change)” value is −1.6 fold change.

In the case of 80 kDa MCM3-associated protein, the “Breast cancer/control (fold change)” value is −2.1 fold change.

For the substance Oxygen-regulated protein 1, the “Breast cancer/control (fold change)” value is −3.0 fold change.

As for Ig heavy chain V-III region KOL, the “Breast cancer/control (fold change)” value stood at 1.7 fold change.

Take Apolipoprotein A-II precursor: the “Breast cancer/control (fold change)” value is listed as 1.9 fold change.

Consider Serum albumin precursor, for which the “Breast cancer/control (fold change)” value is 2.7 fold change.

Regarding Immunoglobulin J chain, the “Breast cancer/control (fold change)” value is 1.6 fold change.

Take Hemoglobin subunit delta: the “Breast cancer/control (fold change)” value is given as −2.2 fold change.

In the case of “Complement C1q subcomponent subunit C precursor”, the “Breast cancer/control (fold change)” value worked out at 1.9 fold change.

As to Centromere protein F, the “Breast cancer/control (fold change)” value is given as −5.5 fold change.

Regarding Ig heavy chain V-III region TRO, the “Breast cancer/control (fold change)” value is reported as 2.1 fold change.

With Hemopexin precursor, the “Breast cancer/control (fold change)” value was 1.5 fold change and 2.6 fold change.

Take Apolipoprotein B-100 precursor: the “Breast cancer/control (fold change)” value worked out at 1.8 fold change.

On to Serotransferrin precursor, for which the “Breast cancer/control (fold change)” value was found to be 2.4 fold change.

Take “Complement C1q subcomponent subunit A precursor”: the “Breast cancer/control (fold change)” value was 2.0 fold change.

On to Titin, for which the “Breast cancer/control (fold change)” value is listed as −1.7 fold change.

Turning to Serine/threonine-protein kinase TBK1, the “Breast cancer/control (fold change)” value is on record as −1.6 fold change.

As for Ig heavy chain V-III region GAL, the “Breast cancer/control (fold change)” value is given as 1.9 fold change.

Take Vitronectin precursor: the “Breast cancer/control (fold change)” value is recorded as −1.6 fold change.

Complement C4-B precursor: the “Breast cancer/control (fold change)” value is on record as 1.5 fold change.

Take Plexin-C1 precursor: the “Breast cancer/control (fold change)” value is listed as −5.1 fold change.

Take Myotubularin-related protein 13: the “Breast cancer/control (fold change)” value was found to be 4.7 fold change.

Alpha-2-macroglobulin precursor: the “Breast cancer/control (fold change)” value came to 2.5 fold change.

As to Complement C3 precursor, the “Breast cancer/control (fold change)” value was −1.6 fold change.

In the next series the test system is carbonylated plasma proteins. As to the kind of experiment: MALDI/TOF/TOF identification of avidin-selected carbonylated proteins in normal human plasma (Table 6). The following applies: Donor 1; MALDI-MS/MS (ABI 4800 plus).
On to APOB_HUMAN, for which the “Number of unique peptides assigned to the protein” value (“Number of unique peptides assigned” below) was 7.73.

CO3_HUMAN: the “Number of unique peptides assigned” value was 14.7.

Still in this series, the particulars now being: Donor 2; MALDI-MS/MS (ABI 4800 plus).
Consider HBB_HUMAN, for which the “Number of unique peptides assigned” value is 5.22.

As for TRFE_HUMAN, the “Number of unique peptides assigned” value amounted to 5.53.

The series is the same for the next values; noted with them: Donor 3; MALDI-MS/MS (ABI 4800 plus).
For PROS_HUMAN, the “Number of unique peptides assigned” value is listed as 6.33.

Staying with this series, now noted: Donor 4; MALDI-MS/MS (ABI 4800 plus).
Consider A1AT_HUMAN, for which the “Number of unique peptides assigned” value turned out to be 2.
